From patent US8859493B2 (Novo Nordisk A/S, priority 2005, dated 2014) come the findings set out here.

The nature of this data set: general procedure: peptide synthesis; TSTU (succinimidyl ester activation of side chain). The note with it: lipidation step.

As for “N^εB29-(3-[2-{2-(2-[ω-carboxy-pentadecanoyl-γ-glutamyl-(2-amino-ethoxy)]-ethoxy)-ethoxy}-ethoxy]-propionyl) desB30 human insulin”, the step yield was 13%. The “final HPLC purity” value (HPLC) is recorded as >98%. Further, under “coupling yield by RP-HPLC”, the step yield is reported as 64%.
